# In the supplement of paper PMC8728848:
# The list shows a part of the results.
# What was measured:
# Assay in all cases: glycan array binding signal (z-score within array); higher = stronger binding
# Conditions in all cases: glycan notation: IUPAC condensed, linker removed
# GlcA(b1-3)Gal = biological target: GlcA(b1-3)Gal
# Outline: (§1)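 Columns mapping to the same glycan were averaged after glycan names were converted to IUPAC-condensed notation. The data come from 3228 arrays in the Consortium for Functional Glycomics database, limited to those with an available protein sequence. Binding is reported as a within-array Z-score averaged across arrays of one protein sequence and across linkers.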
# GlcA(b1-3)GlcNAc = biological target: GlcA(b1-3)GlcNAc
# Outline: as §1
# GlcA(b1-6)Gal = biological target: GlcA(b1-6)Gal
# Outline: as §1
# [1] = biological target: GlcA3S(b1-3)Gal(b1-4)GlcNAc(b1-2)Man
# Outline: as §1
# [2] = biological target: GlcA3S(b1-3)Gal(b1-4)GlcNAc(b1-3)Gal(b1-4)Glc
# Outline: as §1
# [3] = biological target: GlcNAc(a1-3)Gal(b1-4)GlcNAc
# Outline: as §1
# [4] = biological target: GlcNAc(a1-4)Gal(b1-3)GlcNAc
# Outline: as §1
# [5] = biological target: GlcNAc(a1-4)Gal(b1-4)GalNAc
# Outline: as §1
# [6] = biological target: GlcNAc(a1-4)Gal(b1-4)GlcNAc
# Outline: as §1
# [7] = biological target: GlcNAc(a1-4)Gal(b1-4)GlcNAc(b1-3)Gal(b1-4)Glc
# Outline: as §1
# [8] = biological target: GlcNAc(a1-4)Gal(b1-4)GlcNAc(b1-3)Gal(b1-4)GlcNAc
# Outline: as §1
# [9] = biological target: GlcNAc(a1-4)Gal(b1-4)GlcNAc(b1-3)Gal(b1-4)GlcNAc(b1-3)Gal(b1-4)GlcNAc
# Outline: as §1
# [10] = biological target: GlcNAc(a1-4)Gal(b1-4)GlcNAc(b1-3)Gal(b1-4)[Fuc(a1-3)]GlcNAc(b1-3)Gal(b1-4)[Fuc(a1-3)]GlcNAc
# Outline: as §1
# [11] = biological target: GlcNAc(a1-6)Gal(b1-4)GlcNAc
# Outline: as §1
# [12] = biological target: GlcNAc(b1-2)Gal(b1-3)GalNAc
# Outline: as §1
# [13] = biological target: GlcNAc(b1-2)Man(a1-3)[GlcNAc(b1-2)Man(a1-6)]Man(b1-4)GlcNAc(b1-4)GlcNAc
# Outline: as §1
# [14] = biological target: GlcNAc(b1-2)Man(a1-3)[GlcNAc(b1-2)Man(a1-6)]Man(b1-4)GlcNAc(b1-4)[Fuc(a1-6)]GlcNAc
# Outline: as §1
# [15] = biological target: GlcNAc(b1-2)Man(a1-3)[GlcNAc(b1-4)][GlcNAc(b1-2)Man(a1-6)]Man(b1-4)GlcNAc(b1-4)GlcNAc
# Outline: as §1
# [16] = biological target: GlcNAc(b1-2)Man(a1-3)[GlcNAc(b1-4)][GlcNAc(b1-2)Man(a1-6)]Man(b1-4)GlcNAc(b1-4)[Fuc(a1-6)]GlcNAc
# Outline: as §1
# [17] = biological target: GlcNAc(b1-2)[GlcNAc(b1-4)]Man(a1-3)[GlcNAc(b1-2)Man(a1-6)]Man(b1-4)GlcNAc(b1-4)GlcNAc
# Outline: as §1
# [18] = biological target: GlcNAc(b1-2)[GlcNAc(b1-4)]Man(a1-3)[GlcNAc(b1-4)][GlcNAc(b1-2)Man(a1-6)]Man(b1-4)GlcNAc(b1-4)GlcNAc
# Outline: as §1
# [19] = biological target: GlcNAc(b1-2)[GlcNAc(b1-4)]Man(a1-3)[GlcNAc(b1-4)][GlcNAc(b1-2)[GlcNAc(b1-6)]Man(a1-6)]Man(b1-4)GlcNAc(b1-4)GlcNAc
# Outline: as §1
# [20] = biological target: GlcNAc(b1-2)[GlcNAc(b1-4)]Man(a1-3)[GlcNAc(b1-4)][GlcNAc(b1-2)[GlcNAc(b1-6)]Man(a1-6)]Man(b1-4)GlcNAc(b1-4)[Fuc(a1-6)]GlcNAc
# Outline: as §1
# [21] = biological target: GlcNAc(b1-2)[GlcNAc(b1-6)]Man(a1-6)[GlcNAc(b1-2)Man(a1-3)]Man(b1-4)GlcNAc(b1-4)GlcNAc
# Outline: as §1
# [22] = biological target: GlcNAc(b1-2)[GlcNAc(b1-6)]Man(a1-6)[GlcNAc(b1-2)Man(a1-3)]Man(b1-4)GlcNAc(b1-4)[Fuc(a1-6)]GlcNAc
# Outline: as §1
# [23] = biological target: GlcNAc(b1-2)[GlcNAc(b1-6)]Man(a1-6)[GlcNAc(b1-4)][GlcNAc(b1-2)Man(a1-3)]Man(b1-4)GlcNAc(b1-4)GlcNAc
# Outline: as §1
# GlcNAc(b1-3)Fuc = biological target: GlcNAc(b1-3)Fuc
# Outline: as §1
# GlcNAc(b1-3)Gal = biological target: GlcNAc(b1-3)Gal
# Outline: as §1
# [24] = biological target: GlcNAc(b1-3)Gal(b1-3)GalNAc
# Outline: as §1
# GlcNAc(b1-3)Gal(b1-4)Glc = biological target: GlcNAc(b1-3)Gal(b1-4)Glc
# Outline: as §1
# [25] = biological target: GlcNAc(b1-3)Gal(b1-4)GlcNAc
# Outline: as §1
# [26] = biological target: GlcNAc(b1-3)Gal(b1-4)GlcNAc(b1-2)Man(a1-3)[GlcNAc(b1-3)Gal(b1-4)GlcNAc(b1-2)Man(a1-6)]Man(b1-4)GlcNAc(b1-4)GlcNAc
# Outline: as §1
# [27] = biological target: GlcNAc(b1-3)Gal(b1-4)GlcNAc(b1-2)Man(a1-3)[GlcNAc(b1-3)Gal(b1-4)GlcNAc(b1-2)Man(a1-6)]Man(b1-4)GlcNAc(b1-4)[Fuc(a1-6)]GlcNAc
# Outline: as §1
# [28] = biological target: GlcNAc(b1-3)Gal(b1-4)GlcNAc(b1-2)[GlcNAc(b1-3)Gal(b1-4)GlcNAc(b1-6)]Man(a1-6)[GlcNAc(b1-3)Gal(b1-4)GlcNAc(b1-2)Man(a1-3)]Man(b1-4)GlcNAc(b1-4)GlcNAc
# Outline: as §1
# [29] = biological target: GlcNAc(b1-3)Gal(b1-4)GlcNAc(b1-3)Gal(b1-4)GlcNAc
# Outline: as §1
# [30] = biological target: GlcNAc(b1-3)Gal(b1-4)GlcNAc(b1-3)Gal(b1-4)GlcNAc(b1-2)Man(a1-3)[GlcNAc(b1-3)Gal(b1-4)GlcNAc(b1-3)Gal(b1-4)GlcNAc(b1-2)Man(a1-6)]Man(b1-4)GlcNAc(b1-4)GlcNAc
# Outline: as §1
# [31] = biological target: GlcNAc(b1-3)Gal(b1-4)GlcNAc(b1-3)Gal(b1-4)GlcNAc(b1-2)Man(a1-3)[GlcNAc(b1-3)Gal(b1-4)GlcNAc(b1-3)Gal(b1-4)GlcNAc(b1-2)Man(a1-6)]Man(b1-4)GlcNAc(b1-4)[Fuc(a1-6)]GlcNAc
# Outline: as §1
# [32] = biological target: GlcNAc(b1-3)Gal(b1-4)GlcNAc(b1-3)Gal(b1-4)GlcNAc(b1-2)[GlcNAc(b1-3)Gal(b1-4)GlcNAc(b1-3)Gal(b1-4)GlcNAc(b1-6)]Man(a1-6)[GlcNAc(b1-3)Gal(b1-4)GlcNAc(b1-3)Gal(b1-4)GlcNAc(b1-2)Man(a1-3)]Man(b1-4)GlcNAc(b1-4)[Fuc(a1-6)]GlcNAc
# Outline: as §1
# [33] = biological target: GlcNAc(b1-3)Gal(b1-4)GlcNAc(b1-3)Gal(b1-4)GlcNAc(b1-3)Gal(b1-4)GlcNAc(b1-2)Man(a1-3)[GlcNAc(b1-3)Gal(b1-4)GlcNAc(b1-3)Gal(b1-4)GlcNAc(b1-3)Gal(b1-4)GlcNAc(b1-2)Man(a1-6)]Man(b1-4)GlcNAc(b1-4)GlcNAc
# Outline: as §1
# [34] = biological target: GlcNAc(b1-3)Gal(b1-4)GlcNAc(b1-3)Gal(b1-4)GlcNAc(b1-3)Gal(b1-4)GlcNAc(b1-2)Man(a1-3)[GlcNAc(b1-3)Gal(b1-4)GlcNAc(b1-3)Gal(b1-4)GlcNAc(b1-3)Gal(b1-4)GlcNAc(b1-2)Man(a1-6)]Man(b1-4)GlcNAc(b1-4)[Fuc(a1-6)]GlcNAc
# Outline: as §1
# [35] = biological target: GlcNAc(b1-3)Gal(b1-4)GlcNAc(b1-3)Gal(b1-4)GlcNAc(b1-3)Gal(b1-4)GlcNAc(b1-2)[GlcNAc(b1-3)Gal(b1-4)GlcNAc(b1-3)Gal(b1-4)GlcNAc(b1-3)Gal(b1-4)GlcNAc(b1-6)]Man(a1-6)[GlcNAc(b1-3)Gal(b1-4)GlcNAc(b1-3)Gal(b1-4)GlcNAc(b1-3)Gal(b1-4)GlcNAc(b1-2)Man(a1-3)]Man(b1-4)GlcNAc(b1-4)[Fuc(a1-6)]GlcNAc
# Outline: as §1
# [36] = biological target: GlcNAc(b1-3)Gal(b1-4)GlcNAc(b1-3)Gal(b1-4)GlcNAc(b1-3)Gal(b1-4)GlcNAc(b1-3)Gal(b1-4)GlcNAc(b1-2)Man(a1-3)[GlcNAc(b1-3)Gal(b1-4)GlcNAc(b1-3)Gal(b1-4)GlcNAc(b1-3)Gal(b1-4)GlcNAc(b1-3)Gal(b1-4)GlcNAc(b1-2)Man(a1-6)]Man(b1-4)GlcNAc(b1-4)GlcNAc
# Outline: as §1
# [37] = biological target: GlcNAc(b1-3)Gal(b1-4)GlcNAc(b1-3)Gal(b1-4)GlcNAc(b1-3)Gal(b1-4)GlcNAc(b1-3)Gal(b1-4)GlcNAc(b1-2)Man(a1-3)[GlcNAc(b1-3)Gal(b1-4)GlcNAc(b1-3)Gal(b1-4)GlcNAc(b1-3)Gal(b1-4)GlcNAc(b1-3)Gal(b1-4)GlcNAc(b1-2)Man(a1-6)]Man(b1-4)GlcNAc(b1-4)[Fuc(a1-6)]GlcNAc
# Outline: as §1
# [38] = biological target: GlcNAc(b1-3)Gal(b1-4)GlcNAc(b1-3)Gal(b1-4)GlcNAc(b1-3)Gal(b1-4)GlcNAc(b1-3)Gal(b1-4)GlcNAc(b1-2)[GlcNAc(b1-3)Gal(b1-4)GlcNAc(b1-3)Gal(b1-4)GlcNAc(b1-3)Gal(b1-4)GlcNAc(b1-3)Gal(b1-4)GlcNAc(b1-6)]Man(a1-6)[GlcNAc(b1-3)Gal(b1-4)GlcNAc(b1-3)Gal(b1-4)GlcNAc(b1-3)Gal(b1-4)GlcNAc(b1-3)Gal(b1-4)GlcNAc(b1-2)Man(a1-3)]Man(b1-4)GlcNAc(b1-4)[Fuc(a1-6)]GlcNAc
# Outline: as §1
# [39] = biological target: GlcNAc(b1-3)Gal(b1-4)GlcNAc(b1-3)Gal(b1-4)GlcNAc(b1-3)GalNAc
# Outline: as §1
binder,measurement,setting,value
Pbx1CASH domain (Cryptococcus neoformans) (protein) MDETKPLWGNPRADGISLACKDSIVERNVVYDATDGAIVLFGSAGSTVKNNHVYARTRVILGGINLVDYEPWDGDYTNVKVHHNHLYALGRYFKVGIVIGPASWSDDTESVVHSASVTDNEFSGGYWGYGIVVASAKNFEVLRNKVIWDGEQGVARFSGVPGS,glycan array binding signal (z-score),GlcA(b1-3)Gal,-0.429
same,glycan array binding signal (z-score),GlcA(b1-3)GlcNAc,-0.194
same,glycan array binding signal (z-score),GlcA(b1-6)Gal,-0.6
same,glycan array binding signal (z-score),[1],-0.689
same,glycan array binding signal (z-score),[2],1.35
same,glycan array binding signal (z-score),[3],-0.585
same,glycan array binding signal (z-score),[4],-0.187
same,glycan array binding signal (z-score),[5],0.311
same,glycan array binding signal (z-score),[6],-0.512
same,glycan array binding signal (z-score),[7],0.223
same,glycan array binding signal (z-score),[8],0.597
same,glycan array binding signal (z-score),[9],0.136
same,glycan array binding signal (z-score),[10],1.21
same,glycan array binding signal (z-score),[11],-0.894
same,glycan array binding signal (z-score),[12],-0.202
same,glycan array binding signal (z-score),[13],0.233
same,glycan array binding signal (z-score),[14],1.83
same,glycan array binding signal (z-score),[15],0.705
same,glycan array binding signal (z-score),[16],-0.273
same,glycan array binding signal (z-score),[17],-0.257
same,glycan array binding signal (z-score),[18],-0.27
same,glycan array binding signal (z-score),[19],0.795
same,glycan array binding signal (z-score),[20],-0.891
same,glycan array binding signal (z-score),[21],-0.525
same,glycan array binding signal (z-score),[22],0.051
same,glycan array binding signal (z-score),[23],-0.525
same,glycan array binding signal (z-score),GlcNAc(b1-3)Fuc,-0.922
same,glycan array binding signal (z-score),GlcNAc(b1-3)Gal,-0.862
same,glycan array binding signal (z-score),[24],-0.938
same,glycan array binding signal (z-score),GlcNAc(b1-3)Gal(b1-4)Glc,-0.526
same,glycan array binding signal (z-score),[25],-0.85
same,glycan array binding signal (z-score),[26],-0.514
same,glycan array binding signal (z-score),[27],0.751
same,glycan array binding signal (z-score),[28],0.933
same,glycan array binding signal (z-score),[29],-0.356
same,glycan array binding signal (z-score),[30],4.67
same,glycan array binding signal (z-score),[31],1.02
same,glycan array binding signal (z-score),[32],0.023
same,glycan array binding signal (z-score),[33],-0.818
same,glycan array binding signal (z-score),[34],0.64
same,glycan array binding signal (z-score),[35],-0.776
same,glycan array binding signal (z-score),[36],0.389
same,glycan array binding signal (z-score),[37],-0.364
same,glycan array binding signal (z-score),[38],-0.634
same,glycan array binding signal (z-score),[39],2.04

# 2 entries from above, with tabs.
binder	measurement	setting	value
Pbx1CASH domain (Cryptococcus neoformans) (protein) MDETKPLWGNPRADGISLACKDSIVERNVVYDATDGAIVLFGSAGSTVKNNHVYARTRVILGGINLVDYEPWDGDYTNVKVHHNHLYALGRYFKVGIVIGPASWSDDTESVVHSASVTDNEFSGGYWGYGIVVASAKNFEVLRNKVIWDGEQGVARFSGVPGS	glycan array binding signal (z-score)	GlcNAc(b1-3)Fuc	-0.922
same	glycan array binding signal (z-score)	GlcNAc(b1-3)Gal	-0.862
